Data taken from PubChem BioAssay AID662 (National Center for Advancing Translational Sciences (NCATS), 2007).
This is one part of the list. Shown are side measurements of this screen, not its main read-out; they come without a call. The list favours compounds with an active or inconclusive main result. The note in brackets gives the kind of curve behind each potency; many fits are weak.

assay: Cell signaling CRE-BLA (Fsk stim); settings: CHO CRE-bla reporter (cAMP response element driving beta-lactamase), forskolin EC10, beta-lactamase ratio; measured here: 460 nm blue channel
Summary of the method: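 CRE-bla CHO cells stimulated with EC10 NKH 477 (water-soluble forskolin) and compound titrations, 3 h at 37C; beta-lactamase read with CCF4 after 2 h at room temperature. Activity from 460/530 nm emission ratio, AC50 values for positive or negative modulation.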

Row | SMILES | AC50
1 | COc1ccc(CN=CC2=C(O)CC(C)(C)CC2=O)cc1 | 0.316 µM [rising, full curve]
2 | CCOC(=O)c1[nH]c2ccc(OC)cc2c1NC(=O)c1nonc1C | 12.6 µM [rising, partial curve]
3 | O=C(CCCNS(=O)(=O)c1cccs1)N1CCN(c2cccc(Cl)c2)CC1 | 15.8 µM [falling, single point]
4 | COc1cc(-c2nnc(-c3ccc(S(=O)(=O)c4ccccc4)cc3)o2)cc(OC)c1OC | 3.16 µM [rising, partial curve]
5 | Cc1ccc(CC(=O)N2CCC(c3nc4c(nnn4Cc4ccccc4)c(=O)[nH]3)CC2)cc1 | 7.94 µM [rising, partial curve]
6 | COc1cccc(C(=O)NCC(c2cccnc2)N2CCN(c3ccccc3OC)CC2)c1 (stereo not drawn) | 12.6 µM [rising, partial curve]
7 | Nc1nc(OCC(F)(F)F)cc(Oc2ccccc2F)n1 | 0.316 µM [rising, partial curve, poor fit]
8 | CSc1nc(NCC(C)C)nc(N2CCOCC2)n1 | 12.6 µM [rising, single point]
9 | COc1ccc(-c2nnc(SCC(=O)Nc3cc(C)on3)n2C)cc1OC | 10 µM [rising, single point]
10 | N#CCCn1c(=O)c(-c2ccc(Cl)cc2)nc2cnc(OCc3ccccc3)nc21 | 7.94 µM [rising, partial curve]
11 | Cc1nc2sc(-c3ccccc3)cc2c(=O)n1-n1cccc1 | 5.01 µM [rising, single point]
12 | CCOC(=O)c1c(N)sc2c(OC)c(Br)ccc12 | 15.8 µM [rising, partial curve]
13 | CN(C)c1ccc(-c2nc(NC3CCNCC3)c3ccccc3n2)cc1 | 10 µM [rising, partial curve]
14 | CCOC(=O)c1c(NC(=O)COC)sc(C(C)=O)c1C | 12.6 µM [rising, partial curve]
15 | COc1ccc(OC)c2[nH]c(=O)c(CCNS(=O)(=O)c3ccc(Cl)cc3)cc12 | 10 µM [rising, partial curve, poor fit]
16 | CCOC(=O)C(NC(=O)CC)(Nc1ccc(S(=O)(=O)Nc2onc(C)c2C)cc1)C(F)(F)F (stereo not drawn) | 0.0631 µM [falling, full curve]
17 | Cc1cc(NCCCN2CCOCC2)n2ncc(-c3ccc(Cl)cc3)c2n1 | 2.51 µM [rising, full curve]
18 | COc1ccc(-n2c(=O)c(-c3cn(C)c4ccccc34)nc3cnc(OC)nc32)cc1 | 0.126 µM [rising, full curve]
19 | OC1CN=C2CCCc3c2n(c2ccc(Cl)cc32)C1 (stereo not drawn) | 25.1 µM [rising, single point]
20 | O=C(Nc1ccccc1N1CCCCC1)c1ncoc1-c1ccc(F)cc1 | 12.6 µM [rising, single point]
21 | COc1ccc(CCN(C)C(=O)CSc2nccn2C)cc1OC | 10 µM [rising, single point]
22 | CC(=O)Nc1ccc(S(=O)(=O)N(Cc2ccco2)CC2CCCO2)cc1 (stereo not drawn) | 20 µM [rising, single point]

Row | SMILES | AC50
23 | Cc1nc(SCC(=O)NCc2ccco2)c2c(C)c(C)sc2n1 | 2.51 µM [rising, full curve]
24 | CCOC(=O)N1CCC(N2C(=O)c3ccccc3C2Nc2cc(C(=O)OC)cc(C(=O)OC)c2)CC1 (stereo not drawn) | 10 µM [rising, single point]
25 | O=C1c2ccccc2-c2c1cccc2C(=O)N1CCN(C(=O)c2ccco2)CC1 | 1 µM [falling, partial curve]
26 | COc1cc(NS(=O)(=O)c2ccc(C)cc2)c2ncccc2c1 | 12.6 µM [rising, partial curve]
27 | O=C(c1ccccc1)N1CCCC(c2nc3c(nnn3Cc3ccccc3)c(=O)[nH]2)C1 (stereo not drawn) | 10 µM [rising, single point]
28 | O=c1[nH]c(CN2CCc3ccccc32)nc2scc(-c3cccs3)c12 | 0.0501 µM [falling, full curve, poor fit]
29 | COc1ccc2c(c1)nc1n2CN(CC2CCCO2)CN1Cc1ccccc1 (stereo not drawn) | 10 µM [rising, single point]
30 | COC(=O)c1sccc1NC(=O)c1ccco1 | 7.94 µM [rising, partial curve]
31 | COc1ccccc1N(CC(=O)NCCSc1ccccc1)S(C)(=O)=O | 0.501 µM [falling, full curve]
32 | COc1cccc2cc(-c3nc(-c4cccs4)cs3)c(=O)oc12 | 12.6 µM [rising, partial curve]
33 | O=C(NCc1cccnc1)C1CC(=O)N(C2CCCCC2)C1 (stereo not drawn) | 0.631 µM [rising, full curve]
34 | N=c1c(S(=O)(=O)c2ccc(Cl)cc2)cc2c(=O)n3ccccc3nc2n1CCN1CCOCC1 | 5.01 µM [rising, partial curve]
35 | COC(=O)C1C(=O)C2=C(CC1C)NC(C)=C(C(=O)OCc1ccc(OC)cc1)C2c1ccc(C)o1 (stereo not drawn) | 10 µM [rising, single point]
36 | COCc1cc(C)nc(Nc2ccccc2C)c1C#N | 12.6 µM [rising, single point]
37 | Cc1cc(C)cc(C(=O)n2cnnc2N)c1 | 2.51 µM [falling, partial curve]
38 | O=C(c1ccccc1Cl)N1CCCC(c2nc3c(nnn3Cc3ccccc3)c(=O)[nH]2)C1 (stereo not drawn) | 10 µM [rising, single point]
39 | Cc1cc(C)c(NC(=O)CS(=O)CC(=O)N2CCN(c3ccccc3)CC2)c(C)c1 (stereo not drawn) | 20 µM [falling, single point]
40 | COc1cc(NC(=O)c2ccc(S(=O)(=O)N(C)C)cc2)cc(OC)c1OC | 12.6 µM [rising, partial curve]
41 | CCC1CCCCN1Cc1nc2c(c(=O)n(C)c(=O)n2C)n1CC(C)C (stereo not drawn) | 12.6 µM [rising, single point]
42 | CCNc1ncc2nc(-c3ccc(F)cc3)c(=O)n(CCC#N)c2n1 | 3.98 µM [rising, partial curve]
43 | CC(=O)c1c(C)[nH]c(C(=O)NCCc2cccc(C)c2)c1C | 3.98 µM [rising, single point]

Three entries from above, comma-delimited.
Row,SMILES,AC50
4,COc1cc(-c2nnc(-c3ccc(S(=O)(=O)c4ccccc4)cc3)o2)cc(OC)c1OC,"3.16 µM [rising, partial curve]"
25,O=C1c2ccccc2-c2c1cccc2C(=O)N1CCN(C(=O)c2ccco2)CC1,"1 µM [falling, partial curve]"
43,CC(=O)c1c(C)[nH]c(C(=O)NCCc2cccc(C)c2)c1C,"3.98 µM [rising, single point]"
